Laboratory results: paper PMC4336758
No constants are given. Whether binding was seen depends on the method and setting. Some binding calls cover weakened binding; strength is not graded here.

Molecular target: Serum thymidine kinase 1 (STK1) (human (endogenous in serum)) (UniProt P04183)
Experiment: SEC; 200 uL serum diluted 1:1 in 0.01 M Hepes, 0.15 M NH4Cl, 0.02% NaN3; Superose 12 column, 0.4 mL/min; 24 fractions tested for TK1 activity and, by immunoaffinity/Western blotting, for the 25 kDa TK1 polypeptide; sera of MDS, breast cancer and prostate cancer patients and of blood donors

binding: binds
B1: Serum thymidine kinase 1 (STK1) (protein, UniProt P04183 1-234)
chain: MSCINLPTVLPGSPSKTRGQIQVILGPMFSGKSTELMRRVRRFQIAQYKCLVIKYAKDTRYSSSFCTHDRNTMEALPACLLRDVAQEALGVAVIGIDEGQFFPDIVEFCEAMANAGKTVIVAALDGTFQRKPFGAILNLVPLAESVVKLTAVCMECFREAAYTKRLGTEKEVEVIGGADKYHSVCRLCYFKKASGQPAGPDNKENCPVPGKPGEAVAARKLFAPQQILQCSPAN
